Literature values in patent publication US20200101067A1 (IRR, Inc., priority 2013, published 2020).

The chains behind the UniProt entries cited, without tags or fusion partners.
UniProt P35367, whole entry: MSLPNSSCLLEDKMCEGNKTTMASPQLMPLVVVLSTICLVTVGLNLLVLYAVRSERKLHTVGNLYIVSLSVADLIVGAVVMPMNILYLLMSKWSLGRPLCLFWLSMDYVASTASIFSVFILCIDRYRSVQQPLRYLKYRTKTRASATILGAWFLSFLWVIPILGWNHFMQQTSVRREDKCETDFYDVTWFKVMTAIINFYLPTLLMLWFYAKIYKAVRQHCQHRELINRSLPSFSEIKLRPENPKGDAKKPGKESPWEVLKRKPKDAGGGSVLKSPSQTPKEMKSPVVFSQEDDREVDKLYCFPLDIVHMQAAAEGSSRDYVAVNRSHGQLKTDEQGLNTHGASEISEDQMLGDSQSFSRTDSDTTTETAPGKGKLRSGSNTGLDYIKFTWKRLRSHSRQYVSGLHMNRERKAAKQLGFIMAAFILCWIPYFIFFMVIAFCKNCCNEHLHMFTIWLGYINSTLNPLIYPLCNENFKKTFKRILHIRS

Experiments:
[1] = in vivo
H1 receptor = H1 receptor (Homo sapiens, UniProt P35367)

Time to peak plasma level [1]: 0.9 h
Receptor affinity in an acidic ph, increased (H1 receptor): increased 5x
SMILES: O=C(O)COCCN1CCN([C@H](c2ccccc2)c2ccc(Cl)cc2)CC1 [Levocetirizine, levocetirizine]
